{
  "source": "patent US20170281714A1",
  "about": "“METHOD OF TREATMENT USING L[…] G[…] COOPERATE WITH IL-10 TO MODULATE INFLAMMATORY RESPONSE TRIGGERED IN HIV+ AND TB IMMUNE-C[…] PATIENTS” (Your Energy Systems, LLC, priority 2014, published 2017)",
  "origin": "cited, not measured here",
  "system": "Mycobacterium tuberculosis",
  "details": "general statement, concentration not given; cited from earlier work",
  "note": "Some entries share one result that the patent states for a list of compounds.",
  "data": [
    {"smiles": "CC(=O)N[C@@H](CS)C(=O)O", "note": "[NAC, N-acetyl cysteine]", "values": [
      {"measurement": "growth of the organisms limited to a level (CFU/ml)", "result": "below 1000 CFU/ml"}
    ]}
  ]
}
